Consider five molecules from doi:10.1101/2022.01.06.474281.

The target in assay [1] is T1, RETINOBLASTOMA RELATED (RBR), Arabidopsis, yeast two-hybrid fusion in pDEST32 (Arabidopsis thaliana) (UniProt Q9LKZ3).
T1 sequence: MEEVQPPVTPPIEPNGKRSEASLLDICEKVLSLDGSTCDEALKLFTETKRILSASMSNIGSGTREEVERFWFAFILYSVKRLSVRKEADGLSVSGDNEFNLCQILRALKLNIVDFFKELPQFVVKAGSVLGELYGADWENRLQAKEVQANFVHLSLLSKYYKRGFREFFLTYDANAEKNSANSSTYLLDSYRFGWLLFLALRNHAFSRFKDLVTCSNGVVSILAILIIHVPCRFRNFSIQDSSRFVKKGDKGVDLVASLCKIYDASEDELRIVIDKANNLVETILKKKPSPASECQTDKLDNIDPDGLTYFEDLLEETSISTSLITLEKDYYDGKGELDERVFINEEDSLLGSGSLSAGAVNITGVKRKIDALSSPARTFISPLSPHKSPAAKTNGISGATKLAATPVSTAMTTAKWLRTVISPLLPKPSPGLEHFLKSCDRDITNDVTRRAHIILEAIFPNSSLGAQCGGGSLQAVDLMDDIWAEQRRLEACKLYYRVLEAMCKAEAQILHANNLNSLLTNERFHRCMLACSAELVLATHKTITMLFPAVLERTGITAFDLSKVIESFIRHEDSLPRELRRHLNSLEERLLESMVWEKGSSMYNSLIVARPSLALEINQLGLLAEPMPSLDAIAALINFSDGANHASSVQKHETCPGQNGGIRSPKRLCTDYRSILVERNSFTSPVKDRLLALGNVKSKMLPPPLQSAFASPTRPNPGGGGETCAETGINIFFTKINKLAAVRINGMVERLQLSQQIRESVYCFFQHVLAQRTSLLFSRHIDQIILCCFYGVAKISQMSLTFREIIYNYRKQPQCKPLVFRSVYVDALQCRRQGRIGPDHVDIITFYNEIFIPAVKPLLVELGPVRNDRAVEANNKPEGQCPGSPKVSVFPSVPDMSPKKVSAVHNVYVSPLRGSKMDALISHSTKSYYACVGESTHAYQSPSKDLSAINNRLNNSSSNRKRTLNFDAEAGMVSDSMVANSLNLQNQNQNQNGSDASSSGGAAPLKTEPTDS
As to the kind of experiment: two-hybrid.

Assay [2] concerns the target T2, RETINOBLASTOMA RELATED (RBR), Arabidopsis, BiFC fusion (Arabidopsis thaliana) (UniProt Q9LKZ3).
T2 sequence: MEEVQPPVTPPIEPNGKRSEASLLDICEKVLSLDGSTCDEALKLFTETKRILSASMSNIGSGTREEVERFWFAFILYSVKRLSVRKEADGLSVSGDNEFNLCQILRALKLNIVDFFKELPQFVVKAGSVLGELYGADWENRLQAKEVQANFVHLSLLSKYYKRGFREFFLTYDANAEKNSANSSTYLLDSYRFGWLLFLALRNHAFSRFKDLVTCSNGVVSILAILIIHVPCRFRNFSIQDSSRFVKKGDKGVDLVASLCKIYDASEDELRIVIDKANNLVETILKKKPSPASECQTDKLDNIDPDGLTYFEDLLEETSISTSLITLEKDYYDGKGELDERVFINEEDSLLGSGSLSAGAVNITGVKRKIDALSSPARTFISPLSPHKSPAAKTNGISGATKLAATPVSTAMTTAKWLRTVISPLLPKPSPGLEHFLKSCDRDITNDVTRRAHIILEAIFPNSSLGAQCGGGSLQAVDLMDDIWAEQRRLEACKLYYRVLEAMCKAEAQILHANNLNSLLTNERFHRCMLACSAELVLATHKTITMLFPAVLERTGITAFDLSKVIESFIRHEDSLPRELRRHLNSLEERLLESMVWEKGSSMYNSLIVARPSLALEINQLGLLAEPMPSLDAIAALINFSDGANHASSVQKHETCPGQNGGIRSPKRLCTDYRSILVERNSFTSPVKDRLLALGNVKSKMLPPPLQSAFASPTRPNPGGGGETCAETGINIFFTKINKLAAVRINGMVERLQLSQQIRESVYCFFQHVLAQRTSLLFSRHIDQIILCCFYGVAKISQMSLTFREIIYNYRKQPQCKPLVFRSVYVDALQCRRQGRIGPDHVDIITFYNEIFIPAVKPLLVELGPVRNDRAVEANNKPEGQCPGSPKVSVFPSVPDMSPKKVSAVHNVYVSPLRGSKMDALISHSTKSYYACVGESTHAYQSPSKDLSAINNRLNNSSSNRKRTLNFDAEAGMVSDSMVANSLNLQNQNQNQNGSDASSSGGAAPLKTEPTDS
As to the kind of experiment: split reporter.

These are yes or no findings as the source states them, for the method shown. For some assays here: In cells and extracts the contact can be indirect. Some results given as binding are weak or reduced against the parent protein; the word gives no strength. Where a sequence is shown, tags or fusion partners need not be part of it.

B1: DRD1, Arabidopsis, yeast two-hybrid fusion (protein, UniProt Q9SIW2 1-888)
chain: MGFVYIVMTGYYKNVHKRKQNQVDDGPEAKRVKSSAKVIDYSNPFAVSNMLEALDSGKFGSVSKELEEIADMRMDLVKRSIWLYPSLAYTVFEAEKTMDNQQVVEGVINLDDDDDDDTDVEKKALCVVPSSSEIVLLDSDDEDNERQRPMYQFQSTLVQHQKNQGDVTPLIPQCSFEEVDLGRGKEMPSAIKAIVEGQTSRGKVLPIENGVVNEKGVYVGVEEDDSDNESEAADEDLGNIWNEMALSIECSKDVARETSHKEKADVVEDCEHSFILKDDMGYVCRVCGVIEKSILEIIDVQFTKAKRNTRTYASETRTKRFGESDNELKFSEEGLMIGGLAAHPTHAAEMKPHQIEGFQFLCSNLVADDPGGCIMAHAPGSGKTFMIISFMQSFLAKYPQAKPLVVLPKGILPTWKKEFVRWQVEDIPLLDFYSAKAENRAQQLSILKQWMEKKSILFLGYQQFSTIVCDDTTDSLSCQEILLKVPSILILDEGHTPRNEDTNLLQSLAQVQTPRKVVLSGTLYQNHVKEVFNILNLVRPKFLKLDTSKSAVKRILAYTPCDVRGRLTGSNSDMASMFNETVEHTLQKSEDFTVKIKVIQDLREMTKKVLHYYKGDFLDELPGLADFTVVLNLSPKQLNEVKKLRREKRKFKVSAVGSAIYLHPKLKVFSDKSDDVSDTTMDEMVEKLDLNEGVKAKFFLNLINLCDSAGEKLLVFSQYLIPLKFLERLAALAKGWKLGKEVFVLTGNTSSEQREWSMETFNSSPDAKIFFGSIKACGEGISLVGASRILILDVPLNPSVTRQAIGRAFRPGQKKMVHAYRLIAGSSPEEEDHNTCFKKEVISKMWFEWNEYCGYQNFEVETIDVDEAGDTFLESPALREDIRVLYKR
With B1, in assay [1], the binding entry is given as “binds weakly”.

B2: DRD1, Arabidopsis, BiFC fusion (protein, UniProt Q9SIW2 1-888)
chain: MGFVYIVMTGYYKNVHKRKQNQVDDGPEAKRVKSSAKVIDYSNPFAVSNMLEALDSGKFGSVSKELEEIADMRMDLVKRSIWLYPSLAYTVFEAEKTMDNQQVVEGVINLDDDDDDDTDVEKKALCVVPSSSEIVLLDSDDEDNERQRPMYQFQSTLVQHQKNQGDVTPLIPQCSFEEVDLGRGKEMPSAIKAIVEGQTSRGKVLPIENGVVNEKGVYVGVEEDDSDNESEAADEDLGNIWNEMALSIECSKDVARETSHKEKADVVEDCEHSFILKDDMGYVCRVCGVIEKSILEIIDVQFTKAKRNTRTYASETRTKRFGESDNELKFSEEGLMIGGLAAHPTHAAEMKPHQIEGFQFLCSNLVADDPGGCIMAHAPGSGKTFMIISFMQSFLAKYPQAKPLVVLPKGILPTWKKEFVRWQVEDIPLLDFYSAKAENRAQQLSILKQWMEKKSILFLGYQQFSTIVCDDTTDSLSCQEILLKVPSILILDEGHTPRNEDTNLLQSLAQVQTPRKVVLSGTLYQNHVKEVFNILNLVRPKFLKLDTSKSAVKRILAYTPCDVRGRLTGSNSDMASMFNETVEHTLQKSEDFTVKIKVIQDLREMTKKVLHYYKGDFLDELPGLADFTVVLNLSPKQLNEVKKLRREKRKFKVSAVGSAIYLHPKLKVFSDKSDDVSDTTMDEMVEKLDLNEGVKAKFFLNLINLCDSAGEKLLVFSQYLIPLKFLERLAALAKGWKLGKEVFVLTGNTSSEQREWSMETFNSSPDAKIFFGSIKACGEGISLVGASRILILDVPLNPSVTRQAIGRAFRPGQKKMVHAYRLIAGSSPEEEDHNTCFKKEVISKMWFEWNEYCGYQNFEVETIDVDEAGDTFLESPALREDIRVLYKR
For the molecule B2, in assay [2], the binding entry was “binds”.

B3: DOMAINS … 2 (DRM2), Arabidopsis, yeast two-hybrid fusion (protein, UniProt Q9M548 1-626)
chain: MVIWNNDDDDFLEIDNFQSSPRSSPIHAMQCRVENLAGVAVTTSSLSSPTETTDLVQMGFSDEVFATLFDMGFPVEMISRAIKETGPNVETSVIIDTISKYSSDCEAGSSKSKAIDHFLAMGFDEEKVVKAIQEHGEDNMEAIANALLSCPEAKKLPAAVEEEDGIDWSSSDDDTNYTDMLNSDDEKDPNSNENGSKIRSLVKMGFSELEASLAVERCGENVDIAELTDFLCAAQMAREFSEFYTEHEEQKPRHNIKKRRFESKGEPRSSVDDEPIRLPNPMIGFGVPNEPGLITHRSLPELARGPPFFYYENVALTPKGVWETISRHLFEIPPEFVDSKYFCVAARKRGYIHNLPINNRFQIQPPPKYTIHDAFPLSKRWWPEWDKRTKLNCILTCTGSAQLTNRIRVALEPYNEEPEPPKHVQRYVIDQCKKWNLVWVGKNKAAPLEPDEMESILGFPKNHTRGGGMSRTERFKSLGNSFQVDTVAYHLSVLKPIFPHGINVLSLFTGIGGGEVALHRLQIKMKLVVSVEISKVNRNILKDFWEQTNQTGELIEFSDIQHLTNDTIEGLMEKYGGFDLVIGGSPCNNLAGGNRVSRVGLEGDQSSLFFEYCRILEVVRARMRGS
Turning to B3, in assay [1], the binding entry is “binds weakly”.

B4: DOMAINS … 2 (DRM2), Arabidopsis, BiFC fusion (protein, UniProt Q9M548 1-626)
chain: MVIWNNDDDDFLEIDNFQSSPRSSPIHAMQCRVENLAGVAVTTSSLSSPTETTDLVQMGFSDEVFATLFDMGFPVEMISRAIKETGPNVETSVIIDTISKYSSDCEAGSSKSKAIDHFLAMGFDEEKVVKAIQEHGEDNMEAIANALLSCPEAKKLPAAVEEEDGIDWSSSDDDTNYTDMLNSDDEKDPNSNENGSKIRSLVKMGFSELEASLAVERCGENVDIAELTDFLCAAQMAREFSEFYTEHEEQKPRHNIKKRRFESKGEPRSSVDDEPIRLPNPMIGFGVPNEPGLITHRSLPELARGPPFFYYENVALTPKGVWETISRHLFEIPPEFVDSKYFCVAARKRGYIHNLPINNRFQIQPPPKYTIHDAFPLSKRWWPEWDKRTKLNCILTCTGSAQLTNRIRVALEPYNEEPEPPKHVQRYVIDQCKKWNLVWVGKNKAAPLEPDEMESILGFPKNHTRGGGMSRTERFKSLGNSFQVDTVAYHLSVLKPIFPHGINVLSLFTGIGGGEVALHRLQIKMKLVVSVEISKVNRNILKDFWEQTNQTGELIEFSDIQHLTNDTIEGLMEKYGGFDLVIGGSPCNNLAGGNRVSRVGLEGDQSSLFFEYCRILEVVRARMRGS
On to B4, for which, in assay [2], the binding entry is given as “binds”.

B5: SUVR2, Arabidopsis, yeast two-hybrid fusion (protein, UniProt Q9FNC7 1-717)
chain: MAPNLHIKKAFMAMRAMGIEDARVKPVLKNLLALYEKNWELIAEDNYRVLADAIFDSHEDQAIQESEEKKADEVKEDEGCAAEVDRGKKKLHESIEDDEDVMAESDRPLKRLRRRGEGGSALASPSLGSPTLEGPSINDEENAPILLPYHPVPIENDHDAGELILTKVEPITNMPLSSIPDSVDRGDSSMLEIDKSNGHVEEKAGETVSTADGTTNDISPTTVARFSDHKLAATIEEPPALELASSASGEVKINLSFAPATGGSNPHLPSMEELRRAMEEKCLRSYKILDPNFSVLGFMNDICSCYLDLATNGRDSANQLPKNLPFVTTNIDALKKSAARMAYTSQASNDVVEICSNEHMRDAENGAVGDSMALVVVPECQLSADEWRLISSVGDISLGKETVEIPWVNEVNDKVPPVFHYIAQSLVYQDAAVKFSLGNIRDDQCCSSCCGDCLAPSMACRCATAFNGFAYTVDGLLQEDFLEQCISEARDPRKQMLLYCKECPLEKAKKEVILEPCKGHLKRKAIKECWSKCGCMKNCGNRVVQQGIHNKLQVFFTPNGRGWGLRTLEKLPKGAFVCELAGEILTIPELFQRISDRPTSPVILDAYWGSEDISGDDKALSLEGTHYGNISRFINHRCLDANLIEIPVHAETTDSHYYHLAFFTTREIDAMEELTWDYGVPFNQDVFPTSPFHCQCGSDFCRVRKQISKGKNVKKRA
On to B5, for which the binding entry in assay [1] is recorded as “binds”.
